These are yes or no findings as the source states them, for the method shown. Binding seen in cells or lysates may run through a third protein. Some binding calls cover weakened binding; strength is not graded here.
Biological target: Beclin-1 (mouse (endogenous in CT-26)) (UniProt O88597)
Assay: co-IP; cells lysed in RIPA buffer at 4°C, pre-cleared with protein sepharose; specific antibodies or irrelevant immunoglobulin with protein sepharose beads; washed three times with RIPA buffer; SDS-PAGE and western blot; CT-26 and HCT-116 cells treated with naphplatin or cisplatin (10 μM), with or without ethyl pyruvate (EP, 10 mM, 2 h)

Sequences of proteins named here, by UniProt entry; tags and fusion partners are left off.
UniProt O88597: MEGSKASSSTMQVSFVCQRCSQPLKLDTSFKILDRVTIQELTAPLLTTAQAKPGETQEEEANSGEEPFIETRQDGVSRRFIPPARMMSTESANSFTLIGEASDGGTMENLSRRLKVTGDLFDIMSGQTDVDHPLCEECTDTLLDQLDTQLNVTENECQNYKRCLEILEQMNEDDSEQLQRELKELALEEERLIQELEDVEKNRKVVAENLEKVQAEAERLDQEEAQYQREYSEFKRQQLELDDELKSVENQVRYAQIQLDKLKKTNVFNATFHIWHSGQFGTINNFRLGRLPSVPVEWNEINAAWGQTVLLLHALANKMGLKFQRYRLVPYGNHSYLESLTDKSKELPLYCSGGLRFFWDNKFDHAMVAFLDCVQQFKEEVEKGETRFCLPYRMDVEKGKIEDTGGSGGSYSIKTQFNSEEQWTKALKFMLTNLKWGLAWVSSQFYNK
UniProt Q6PF93: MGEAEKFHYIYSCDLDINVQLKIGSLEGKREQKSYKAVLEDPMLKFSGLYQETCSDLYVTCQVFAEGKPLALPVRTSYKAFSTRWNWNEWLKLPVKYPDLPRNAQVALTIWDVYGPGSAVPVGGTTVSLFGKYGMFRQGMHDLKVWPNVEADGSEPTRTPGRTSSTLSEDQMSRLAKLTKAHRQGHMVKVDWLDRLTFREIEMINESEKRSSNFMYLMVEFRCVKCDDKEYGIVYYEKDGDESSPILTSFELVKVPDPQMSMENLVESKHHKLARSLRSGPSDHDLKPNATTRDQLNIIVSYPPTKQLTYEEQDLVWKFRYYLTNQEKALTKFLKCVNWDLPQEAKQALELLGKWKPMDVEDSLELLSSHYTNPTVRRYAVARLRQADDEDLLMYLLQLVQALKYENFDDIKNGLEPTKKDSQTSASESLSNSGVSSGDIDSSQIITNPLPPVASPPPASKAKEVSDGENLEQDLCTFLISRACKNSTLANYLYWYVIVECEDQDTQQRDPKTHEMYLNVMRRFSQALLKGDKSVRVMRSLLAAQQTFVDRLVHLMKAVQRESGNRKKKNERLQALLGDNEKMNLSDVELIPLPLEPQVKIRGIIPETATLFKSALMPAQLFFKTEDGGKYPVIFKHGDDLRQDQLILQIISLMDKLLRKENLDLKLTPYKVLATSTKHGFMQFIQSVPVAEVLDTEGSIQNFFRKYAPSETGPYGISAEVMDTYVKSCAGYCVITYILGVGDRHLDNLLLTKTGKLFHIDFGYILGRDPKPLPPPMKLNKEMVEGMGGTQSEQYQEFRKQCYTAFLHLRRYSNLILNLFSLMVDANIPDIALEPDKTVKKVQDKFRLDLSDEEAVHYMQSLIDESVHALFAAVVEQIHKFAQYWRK

binding: binds
Substance: PI3K-III (from UniProt Q6PF93 1-887)

Source: PMC10401909
